Data reported in patent US20170114145A1.
Results are given in words; binding and its absence hold for the method and conditions named. Some entries that bind do so weakly or less than the wild type. Tags and fused reporters may be left off the sequences shown.

The chains behind the UniProt entries cited, without tags or fusion partners. Where a name states a change or a piece, a line headed by the entry shows the natural chain unless it says otherwise.
UniProt Q9ULT6: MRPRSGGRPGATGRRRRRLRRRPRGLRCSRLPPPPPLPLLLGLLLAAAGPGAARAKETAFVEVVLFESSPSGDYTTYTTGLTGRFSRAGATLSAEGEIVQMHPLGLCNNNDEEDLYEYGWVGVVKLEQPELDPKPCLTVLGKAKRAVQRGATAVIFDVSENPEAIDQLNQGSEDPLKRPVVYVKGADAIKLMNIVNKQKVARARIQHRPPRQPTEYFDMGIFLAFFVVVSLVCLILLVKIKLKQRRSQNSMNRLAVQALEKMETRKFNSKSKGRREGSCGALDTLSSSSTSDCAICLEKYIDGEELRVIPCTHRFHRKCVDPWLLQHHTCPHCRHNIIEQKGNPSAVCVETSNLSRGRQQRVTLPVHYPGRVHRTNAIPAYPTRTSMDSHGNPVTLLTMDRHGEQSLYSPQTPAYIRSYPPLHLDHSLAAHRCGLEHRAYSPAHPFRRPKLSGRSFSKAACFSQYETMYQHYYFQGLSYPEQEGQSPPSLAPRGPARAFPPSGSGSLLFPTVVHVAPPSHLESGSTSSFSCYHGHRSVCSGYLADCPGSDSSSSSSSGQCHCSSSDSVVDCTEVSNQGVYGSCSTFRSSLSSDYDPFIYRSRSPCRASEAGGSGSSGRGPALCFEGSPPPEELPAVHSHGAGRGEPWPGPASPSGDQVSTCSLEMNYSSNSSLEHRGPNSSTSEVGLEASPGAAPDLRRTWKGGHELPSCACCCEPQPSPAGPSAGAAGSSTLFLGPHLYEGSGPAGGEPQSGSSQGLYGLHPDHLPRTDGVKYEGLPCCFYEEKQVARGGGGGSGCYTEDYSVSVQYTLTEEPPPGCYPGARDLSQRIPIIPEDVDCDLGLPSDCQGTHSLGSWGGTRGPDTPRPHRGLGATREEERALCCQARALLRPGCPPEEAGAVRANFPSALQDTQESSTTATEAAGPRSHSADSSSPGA
UniProt O75581: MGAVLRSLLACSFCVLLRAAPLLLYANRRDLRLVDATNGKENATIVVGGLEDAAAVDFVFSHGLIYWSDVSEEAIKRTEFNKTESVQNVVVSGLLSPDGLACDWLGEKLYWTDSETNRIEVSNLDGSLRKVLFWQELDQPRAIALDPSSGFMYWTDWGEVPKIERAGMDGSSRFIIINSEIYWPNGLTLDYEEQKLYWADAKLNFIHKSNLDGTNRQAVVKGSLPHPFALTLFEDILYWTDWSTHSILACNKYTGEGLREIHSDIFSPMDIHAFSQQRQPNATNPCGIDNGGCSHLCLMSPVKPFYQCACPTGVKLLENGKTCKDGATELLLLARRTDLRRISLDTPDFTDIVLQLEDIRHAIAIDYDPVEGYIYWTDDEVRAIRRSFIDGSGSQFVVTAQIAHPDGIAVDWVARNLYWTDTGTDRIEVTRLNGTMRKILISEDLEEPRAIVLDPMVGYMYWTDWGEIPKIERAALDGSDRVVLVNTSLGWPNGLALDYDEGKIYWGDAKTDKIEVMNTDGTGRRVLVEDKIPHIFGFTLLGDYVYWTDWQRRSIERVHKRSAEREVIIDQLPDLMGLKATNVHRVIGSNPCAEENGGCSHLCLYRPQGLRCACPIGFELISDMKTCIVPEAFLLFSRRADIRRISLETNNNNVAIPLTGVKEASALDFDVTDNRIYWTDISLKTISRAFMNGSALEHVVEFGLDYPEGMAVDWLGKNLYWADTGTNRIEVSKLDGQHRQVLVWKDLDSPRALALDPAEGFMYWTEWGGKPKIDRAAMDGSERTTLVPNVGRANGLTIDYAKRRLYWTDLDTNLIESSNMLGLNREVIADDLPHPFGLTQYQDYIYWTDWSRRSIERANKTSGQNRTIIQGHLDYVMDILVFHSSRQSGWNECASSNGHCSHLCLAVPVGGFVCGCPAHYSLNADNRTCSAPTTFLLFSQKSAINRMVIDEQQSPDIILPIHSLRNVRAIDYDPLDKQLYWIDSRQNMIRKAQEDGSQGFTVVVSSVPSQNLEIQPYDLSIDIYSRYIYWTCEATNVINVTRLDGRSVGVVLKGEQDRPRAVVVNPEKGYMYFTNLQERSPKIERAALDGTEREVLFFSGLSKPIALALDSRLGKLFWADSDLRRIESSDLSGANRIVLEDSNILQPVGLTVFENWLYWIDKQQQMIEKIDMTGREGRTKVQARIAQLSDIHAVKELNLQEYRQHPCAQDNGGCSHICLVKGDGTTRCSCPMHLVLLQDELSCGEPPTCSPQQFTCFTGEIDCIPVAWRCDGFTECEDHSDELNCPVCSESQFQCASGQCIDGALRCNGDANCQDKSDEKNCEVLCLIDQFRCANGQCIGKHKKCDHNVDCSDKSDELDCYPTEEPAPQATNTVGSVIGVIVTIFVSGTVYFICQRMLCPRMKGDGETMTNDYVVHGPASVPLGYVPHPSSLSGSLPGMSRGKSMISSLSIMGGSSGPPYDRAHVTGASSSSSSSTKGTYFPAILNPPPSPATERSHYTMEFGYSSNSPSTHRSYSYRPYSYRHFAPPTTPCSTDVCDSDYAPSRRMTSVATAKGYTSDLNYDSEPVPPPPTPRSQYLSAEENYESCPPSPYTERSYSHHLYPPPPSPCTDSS

What was measured:
[1] = target: T1, RNF43-Fc (Homo sapiens (Human)) (UniProt Q68DV7); assay: ELISA: hRNF43-Fc coated at 4 ug/mL, hLGR5-Fc 1 ug/mL preincubated with or without 1 ug/mL R-spondin 1/2/3/4 or 0.5 ug/mL Norrin, bound hLGR5-Fc detected with anti-FLAG mAb (ternary complex LGR5 / ligand / RNF43)
T1 sequence: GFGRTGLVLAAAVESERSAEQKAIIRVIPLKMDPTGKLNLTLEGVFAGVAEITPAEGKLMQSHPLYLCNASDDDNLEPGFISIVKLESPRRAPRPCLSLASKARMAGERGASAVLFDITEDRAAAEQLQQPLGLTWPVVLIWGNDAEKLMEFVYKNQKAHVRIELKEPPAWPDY

[2] = target: ZNRF3-Fc (Homo sapiens (Human)) (UniProt Q9ULT6); assay: ELISA, plate-bound ZNRF3-Fc, LGR5-Fc preincubated with R-spondin 1/2/3/4 or Norrin, anti-FLAG detection
[3] = target: LRP6-Fc (Homo sapiens (Human)) (UniProt O75581); assay: ELISA, plate-bound LRP6-Fc, LGR5-Fc preincubated with R-spondin 1/2/3/4 or Norrin, anti-FLAG detection
[4] = target: T1, RNF43-Fc (Homo sapiens (Human)); assay: ELISA, plate-bound RNF43-Fc, LGR5-Fc preincubated with R-spondin 1/2/3/4 or Norrin, anti-FLAG detection

binding [1]: binds | binding [2]: binds | binding [3]: binds | binding [4]: binds
B1: recombinant human LGR5 ectodomain-IgG-Fc fusion (Fc fusion, not shown: a dimerising Fc or GST)
chain: GSSPRSGVLLRGCPTHCHCEPDGRMLLRVDCSDLGLSELPSNLSVFTSYLDLSMNNISQLLPNPLPSLRFLEELRLAGNALTYIPKGAFTGLYSLKVLMLQNNQLRHVPTEALQNLRSLQSLRLDANHISYVPPSCFSGLHSLRHLWLDDNALTEIPVQAFRSLSALQAMTLALNKIHHIPDYAFGNLSSLVVLHLHNNRIHSLGKKCFDGLHSLETLDLNYNNLDEFPTAIRTLSNLKELGFHSNNIRSIPEKAFVGNPSLITIHFYDNPIQFVGRSAFQHLPELRTLTLNGASQITEFPDLTGTANLESLTLTGAQISSLPQTVCNQLPNLQVLDLSYNLLEDLPSFSVCQKLQKIDLRHNEIYEIKVDTFQQLLSLRSLNLAWNKIAIIHPNAFSTLPSLIKLDLSSNLLSSFPITGLHGLTHLKLTGNHALQSLISSENFPELKVIEMPYAYQCCAFGVCENAYKISNQWNKGDNSSMDDLHKKDAGMFQAQDERDLEDFLLDFEEDLKALHSVQCSPSPGPFKPCEHLLDGWLIR
